Measurements taken from the supplement of paper PMC12067093, “Discovery and optimisation of a covalent ligand for TRIM25 and its application to targeted protein ubiquitination” (Chemical Science, 2025).
The list shows a part of the results.

Chains of the proteins cited; added tags and fusions are not shown. Lines headed by an entry give the natural chain unless they say otherwise; changes in a name come on top.
UniProt Q8TEP8: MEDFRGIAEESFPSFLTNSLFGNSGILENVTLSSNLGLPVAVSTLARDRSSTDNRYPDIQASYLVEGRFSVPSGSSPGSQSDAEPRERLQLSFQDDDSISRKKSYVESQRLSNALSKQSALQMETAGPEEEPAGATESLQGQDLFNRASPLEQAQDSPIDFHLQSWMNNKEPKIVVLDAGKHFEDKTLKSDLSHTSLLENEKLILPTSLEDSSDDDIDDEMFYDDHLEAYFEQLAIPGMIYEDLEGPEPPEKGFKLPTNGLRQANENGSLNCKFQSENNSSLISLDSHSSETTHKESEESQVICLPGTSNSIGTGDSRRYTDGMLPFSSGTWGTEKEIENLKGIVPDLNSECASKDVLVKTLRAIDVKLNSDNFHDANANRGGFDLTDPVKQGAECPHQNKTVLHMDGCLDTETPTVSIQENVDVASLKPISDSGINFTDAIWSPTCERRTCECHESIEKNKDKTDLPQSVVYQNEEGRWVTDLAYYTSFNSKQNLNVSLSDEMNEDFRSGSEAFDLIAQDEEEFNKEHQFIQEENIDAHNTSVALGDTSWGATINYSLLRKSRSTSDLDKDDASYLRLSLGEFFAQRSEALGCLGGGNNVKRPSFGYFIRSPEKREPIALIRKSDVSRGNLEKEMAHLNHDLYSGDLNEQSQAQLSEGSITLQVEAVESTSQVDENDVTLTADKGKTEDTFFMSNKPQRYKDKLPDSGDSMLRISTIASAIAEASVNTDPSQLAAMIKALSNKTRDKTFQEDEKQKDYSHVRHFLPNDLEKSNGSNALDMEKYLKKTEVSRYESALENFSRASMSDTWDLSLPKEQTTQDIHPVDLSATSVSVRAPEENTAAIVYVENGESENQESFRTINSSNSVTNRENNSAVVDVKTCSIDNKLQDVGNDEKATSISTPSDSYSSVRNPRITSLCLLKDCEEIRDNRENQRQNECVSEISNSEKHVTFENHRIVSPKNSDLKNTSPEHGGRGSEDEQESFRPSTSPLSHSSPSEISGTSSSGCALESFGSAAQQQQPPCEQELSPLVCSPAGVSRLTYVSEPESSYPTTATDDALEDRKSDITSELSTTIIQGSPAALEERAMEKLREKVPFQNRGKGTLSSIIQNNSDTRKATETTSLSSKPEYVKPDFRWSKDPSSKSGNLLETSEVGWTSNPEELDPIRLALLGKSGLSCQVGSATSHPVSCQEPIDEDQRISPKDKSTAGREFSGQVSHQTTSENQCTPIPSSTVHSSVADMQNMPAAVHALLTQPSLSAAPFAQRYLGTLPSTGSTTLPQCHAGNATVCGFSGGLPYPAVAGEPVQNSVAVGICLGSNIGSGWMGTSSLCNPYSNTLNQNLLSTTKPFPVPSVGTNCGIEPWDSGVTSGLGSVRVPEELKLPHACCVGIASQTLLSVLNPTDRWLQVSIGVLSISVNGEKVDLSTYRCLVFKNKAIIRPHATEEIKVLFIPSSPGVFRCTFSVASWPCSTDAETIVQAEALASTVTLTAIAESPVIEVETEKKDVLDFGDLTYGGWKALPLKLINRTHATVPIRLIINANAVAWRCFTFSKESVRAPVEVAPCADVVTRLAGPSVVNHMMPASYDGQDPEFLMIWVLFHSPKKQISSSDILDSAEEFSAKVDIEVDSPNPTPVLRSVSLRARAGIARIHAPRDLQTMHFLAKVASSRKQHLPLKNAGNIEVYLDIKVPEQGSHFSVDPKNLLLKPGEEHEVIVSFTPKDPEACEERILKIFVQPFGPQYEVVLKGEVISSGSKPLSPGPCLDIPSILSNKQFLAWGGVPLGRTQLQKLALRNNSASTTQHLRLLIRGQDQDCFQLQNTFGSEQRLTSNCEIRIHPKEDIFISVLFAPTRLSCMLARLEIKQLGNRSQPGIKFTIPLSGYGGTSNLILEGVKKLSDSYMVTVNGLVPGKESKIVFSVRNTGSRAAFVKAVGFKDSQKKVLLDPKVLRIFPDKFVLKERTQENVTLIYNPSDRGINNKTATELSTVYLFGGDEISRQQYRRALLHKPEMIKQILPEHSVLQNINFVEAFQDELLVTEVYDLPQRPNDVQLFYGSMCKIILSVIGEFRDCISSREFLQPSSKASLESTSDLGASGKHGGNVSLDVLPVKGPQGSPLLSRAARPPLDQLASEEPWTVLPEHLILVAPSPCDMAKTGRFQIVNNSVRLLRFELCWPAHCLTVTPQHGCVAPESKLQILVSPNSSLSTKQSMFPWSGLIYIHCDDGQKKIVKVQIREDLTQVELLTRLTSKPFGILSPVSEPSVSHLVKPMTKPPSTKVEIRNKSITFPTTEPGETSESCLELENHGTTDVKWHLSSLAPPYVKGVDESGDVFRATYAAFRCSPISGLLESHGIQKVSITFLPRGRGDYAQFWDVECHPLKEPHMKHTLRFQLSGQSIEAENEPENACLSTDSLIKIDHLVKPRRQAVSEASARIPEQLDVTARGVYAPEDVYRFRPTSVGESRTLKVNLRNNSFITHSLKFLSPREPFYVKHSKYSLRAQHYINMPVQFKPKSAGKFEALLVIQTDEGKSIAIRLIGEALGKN
UniProt Q9UJX2, whole entry, looked up: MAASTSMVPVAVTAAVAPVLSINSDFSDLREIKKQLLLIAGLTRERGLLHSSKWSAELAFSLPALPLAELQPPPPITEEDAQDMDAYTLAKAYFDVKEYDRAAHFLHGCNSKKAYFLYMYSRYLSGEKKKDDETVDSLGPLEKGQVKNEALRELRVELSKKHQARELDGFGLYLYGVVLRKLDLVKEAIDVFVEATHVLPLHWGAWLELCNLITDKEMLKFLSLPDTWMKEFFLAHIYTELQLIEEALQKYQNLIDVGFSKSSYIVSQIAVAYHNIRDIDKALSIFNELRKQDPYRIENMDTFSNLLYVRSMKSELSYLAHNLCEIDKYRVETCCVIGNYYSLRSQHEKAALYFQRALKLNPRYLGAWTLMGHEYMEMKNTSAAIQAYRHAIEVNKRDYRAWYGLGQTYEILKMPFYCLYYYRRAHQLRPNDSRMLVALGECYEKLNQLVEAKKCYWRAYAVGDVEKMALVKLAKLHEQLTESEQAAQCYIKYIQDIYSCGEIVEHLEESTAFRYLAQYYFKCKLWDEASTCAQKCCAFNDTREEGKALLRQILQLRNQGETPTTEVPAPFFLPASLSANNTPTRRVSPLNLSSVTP
UniProt Q00535, whole entry, looked up: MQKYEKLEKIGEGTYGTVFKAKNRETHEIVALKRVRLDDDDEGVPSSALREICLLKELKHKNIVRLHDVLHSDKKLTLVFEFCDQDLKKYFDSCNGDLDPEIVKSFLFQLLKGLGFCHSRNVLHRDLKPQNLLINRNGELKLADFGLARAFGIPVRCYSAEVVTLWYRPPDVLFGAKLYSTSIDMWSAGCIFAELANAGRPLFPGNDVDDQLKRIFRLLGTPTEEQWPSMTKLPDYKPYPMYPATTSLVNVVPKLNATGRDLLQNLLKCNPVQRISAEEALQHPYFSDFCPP
UniProt P40227, whole entry, looked up: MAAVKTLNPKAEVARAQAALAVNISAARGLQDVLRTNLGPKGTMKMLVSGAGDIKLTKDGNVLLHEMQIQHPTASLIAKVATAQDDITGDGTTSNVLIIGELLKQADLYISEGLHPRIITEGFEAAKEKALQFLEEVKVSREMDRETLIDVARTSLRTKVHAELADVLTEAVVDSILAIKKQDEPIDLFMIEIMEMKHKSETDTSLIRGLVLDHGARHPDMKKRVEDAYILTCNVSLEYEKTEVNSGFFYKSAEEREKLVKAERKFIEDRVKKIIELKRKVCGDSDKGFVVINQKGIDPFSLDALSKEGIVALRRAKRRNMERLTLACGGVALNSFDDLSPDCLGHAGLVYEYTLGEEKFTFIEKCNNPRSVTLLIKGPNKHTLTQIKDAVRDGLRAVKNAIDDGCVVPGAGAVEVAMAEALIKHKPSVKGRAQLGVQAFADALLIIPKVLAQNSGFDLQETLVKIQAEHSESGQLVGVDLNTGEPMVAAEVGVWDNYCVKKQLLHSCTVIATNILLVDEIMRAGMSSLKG
UniProt Q8N5B7: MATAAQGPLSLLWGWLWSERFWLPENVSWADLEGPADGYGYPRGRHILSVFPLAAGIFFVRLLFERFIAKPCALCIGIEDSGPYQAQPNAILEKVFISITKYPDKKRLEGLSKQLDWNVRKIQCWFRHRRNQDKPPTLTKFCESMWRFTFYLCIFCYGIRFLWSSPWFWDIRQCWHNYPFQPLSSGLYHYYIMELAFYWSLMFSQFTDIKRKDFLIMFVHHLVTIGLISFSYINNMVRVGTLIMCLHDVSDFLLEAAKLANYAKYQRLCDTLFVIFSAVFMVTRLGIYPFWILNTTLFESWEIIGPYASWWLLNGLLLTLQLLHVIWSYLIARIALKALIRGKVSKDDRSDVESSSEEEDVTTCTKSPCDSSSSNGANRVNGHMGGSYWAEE
UniProt Q99832: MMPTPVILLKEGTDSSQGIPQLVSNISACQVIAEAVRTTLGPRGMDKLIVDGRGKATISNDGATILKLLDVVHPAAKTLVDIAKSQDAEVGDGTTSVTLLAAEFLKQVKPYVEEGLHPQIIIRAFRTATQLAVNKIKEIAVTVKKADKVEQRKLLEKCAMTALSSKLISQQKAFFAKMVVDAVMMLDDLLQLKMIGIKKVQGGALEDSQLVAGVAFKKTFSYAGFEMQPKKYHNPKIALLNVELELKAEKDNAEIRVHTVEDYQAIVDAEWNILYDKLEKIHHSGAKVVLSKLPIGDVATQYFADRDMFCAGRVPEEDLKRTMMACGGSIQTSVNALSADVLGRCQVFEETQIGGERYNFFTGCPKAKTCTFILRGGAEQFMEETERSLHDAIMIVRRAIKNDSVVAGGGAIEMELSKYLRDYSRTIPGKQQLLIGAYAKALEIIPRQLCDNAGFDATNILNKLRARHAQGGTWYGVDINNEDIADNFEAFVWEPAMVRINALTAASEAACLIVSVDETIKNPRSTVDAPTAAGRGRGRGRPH
UniProt Q13042, whole entry, looked up: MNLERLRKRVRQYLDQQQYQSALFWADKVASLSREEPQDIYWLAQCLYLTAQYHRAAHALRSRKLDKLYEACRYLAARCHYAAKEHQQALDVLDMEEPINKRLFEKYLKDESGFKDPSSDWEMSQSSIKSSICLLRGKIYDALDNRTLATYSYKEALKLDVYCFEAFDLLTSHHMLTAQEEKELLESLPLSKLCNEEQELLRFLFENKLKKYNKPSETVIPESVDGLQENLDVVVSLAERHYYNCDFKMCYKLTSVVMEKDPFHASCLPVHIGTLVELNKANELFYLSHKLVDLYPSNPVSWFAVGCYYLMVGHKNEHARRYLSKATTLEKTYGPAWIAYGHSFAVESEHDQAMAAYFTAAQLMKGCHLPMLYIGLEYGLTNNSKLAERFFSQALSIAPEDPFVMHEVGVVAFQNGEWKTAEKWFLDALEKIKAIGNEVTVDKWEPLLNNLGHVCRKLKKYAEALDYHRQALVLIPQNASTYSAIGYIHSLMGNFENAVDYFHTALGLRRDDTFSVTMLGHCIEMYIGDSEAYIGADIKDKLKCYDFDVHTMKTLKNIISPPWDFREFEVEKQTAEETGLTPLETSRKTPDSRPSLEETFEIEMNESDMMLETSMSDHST
UniProt P16070: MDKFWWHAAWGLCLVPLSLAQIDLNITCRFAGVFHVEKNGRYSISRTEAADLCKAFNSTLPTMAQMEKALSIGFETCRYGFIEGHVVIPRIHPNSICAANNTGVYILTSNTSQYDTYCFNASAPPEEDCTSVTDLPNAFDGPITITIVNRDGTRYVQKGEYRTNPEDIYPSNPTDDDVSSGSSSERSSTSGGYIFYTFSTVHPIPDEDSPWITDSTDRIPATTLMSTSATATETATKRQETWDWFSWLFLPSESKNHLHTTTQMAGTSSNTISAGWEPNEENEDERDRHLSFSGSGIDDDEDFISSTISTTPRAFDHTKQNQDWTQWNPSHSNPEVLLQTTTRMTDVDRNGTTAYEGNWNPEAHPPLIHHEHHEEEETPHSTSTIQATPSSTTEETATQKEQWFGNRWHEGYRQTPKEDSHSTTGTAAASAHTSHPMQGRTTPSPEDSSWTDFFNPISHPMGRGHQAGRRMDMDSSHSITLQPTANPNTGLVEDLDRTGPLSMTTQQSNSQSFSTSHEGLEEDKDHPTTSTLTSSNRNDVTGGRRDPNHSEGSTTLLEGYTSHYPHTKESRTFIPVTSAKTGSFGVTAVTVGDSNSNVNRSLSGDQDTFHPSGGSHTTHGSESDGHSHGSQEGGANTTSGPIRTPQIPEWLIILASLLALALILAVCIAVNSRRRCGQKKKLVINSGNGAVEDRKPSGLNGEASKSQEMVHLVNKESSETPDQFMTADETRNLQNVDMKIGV

compound: CC1Cc2ccccc2N1C(=O)C1CCCN(C1)C(=O)CCl (mixture of isomers) [TRIM25 ligand 11 (diastereomer mixture)]; experiment: probe-labelled cysteine peptide fold change vs DMSO (competition) (log2 fold change); higher = less target engagement (more negative = stronger competition); settings: 10 µM; THP-1; incubation time: 4 h
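Also: competitive chemoproteomic profiling in live THP-1 cells with an iodoacetamide desthiobiotin (IA-DTB) probe, comparing probe-labelled peptide intensities in compound-treated cells against DMSO-treated controls.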

Target	probe-labelled cysteine peptide fold change
CEP192_Q8TEP8_1562_APVEVAPCADVVTR (UniProt Q8TEP8)	0.0187
CDC23_Q9UJX2_109_AAHFLHGCNSK (UniProt Q9UJX2)	0.0496
CEP350_Q5VT06_2412_DSQSCR (UniProt Q5VT06)	-0.153
CCT8_P50990_347_LTPPVLEEMGHCDSVYLSEVGDTQVVVFKHEK (UniProt P50990)	-0.314
CENPF_P49454_1947_LEYFSCDHQELLQR (UniProt P49454)	0.0929
CDK5_Q00535_290_ISAEEALQHPYFSDFCPP (UniProt Q00535)	-0.505
CCT6A_P40227_508_QLLHSCTVIATNILLVDEIMR (UniProt P40227)	0.0744
CEP250_Q9BV73_2348_CVAELQK (UniProt Q9BV73)	-0.0293
CD46_P15529_157_GSVAIWSGKPPICEK (UniProt P15529)	0.061
CDK5RAP3_Q96JB5_68_INAAIQDMPESEEIAQLLSGSYIHYFHCLR (UniProt Q96JB5)	0.161
CCT8_P50990_149_AHEILPNLVCCSAK (UniProt P50990)	-0.0788
CEP63_Q96MT8_108_LHEELCILK (UniProt Q96MT8)	-0.057
CERS5_Q8N5B7_369_SPCDSSSSNGANR (UniProt Q8N5B7)	-0.0225
CCT7_Q99832_310_DMFCAGR (UniProt Q99832)	0.179
CDC16_Q13042_455_AIGNEVTVDKWEPLLNNLGHVCR (UniProt Q13042)	-0.12
CD44_P16070_77_ALSIGFETCR (UniProt P16070)	-0.00517
